The record followed here is patent US4451485A, “Treatment of cardio-vascular diseases with 3-(2,2,2-trimethylhydrazinium) propionate dihydrate” (Institu Organicheskogo Sinteza Akademii Nauk Latviiskoi SSR, priority 1981, dated 1984).

A short description of data set [1]: in vivo. As to conditions: mouse. More on the design: species or system white mice. The text has this: Acute toxicity of pharmaceutical compositions in
experiments on white mice at intravenous administration.
Aconitine ar- at intrave-

A short description of data set [2]: Threshold of electric fibrillation of auricles and ventricles in cats. It counts as in vivo. As to the method:
Furthermore, the preparation according to the present invention was tested for specific antiarrhythmic and antianginal effects. […] The effect of the novel pharmaceutical composition according to the present invention was studied on cats weighing 2.9-3.6 kg. The preparation was used as a 10% aqueous solution containing 3-(2,2,2-trimethylhydrazinium)propionate for the determination of the threshold value of electric fibrillation of auricles and ventricles. Under artificial respiration after opening of the thorax and pericardium, needle-like electrodes were applied to the right auricula and apex of the left ventricle. The irritation was effected by square pulses of 1 m.s., 15 st/s.
For the comparison of preparations, as the criterion of the range of therapeutic effect, there was used the ratio of the half-lethal dose to the half-effective dose (LD50 /ED50) which was referred to as the antiarrhythmic index. […] The comparative study of the antiarrhythmic activity of pharmaceutical preparations using an acotine model of arrhythmia was effected in experiments on white rats weighing 190-240 g. The test preparations were administered intraperitoneally 10-40 minutes before administration of aconitine.

Data set [3] in a line: Strophanthin arrhythmia in guinea pigs (450 μg/kg). As to conditions: guinea pig, in vivo. As to the method:
As the third model of arrhythmia, there was used strophanthin arrhythmia in guinea pigs. […] Against the background of arrhythmia the test preparations were administered intravenously.

As a reminder, the LD50 is the dose at which mortality reaches 50%. In general, ED50 refers to the dose that gives a 50% effect, or the effect in half of the subjects. Regarding `CCN(CC)CC(=O)Nc1c(C)cccc1C` [Lidocain], the “Toxicity relative to the composition of the invention” value in data set [1] is reported as “substantially higher toxicity”. In addition, the LD50 in data set [1] (white mice, intravenous (Table 5), read-out: Acute toxicity, LD50) came to 40 mg/kg. In addition, the ED50 in data set [2] (Felis catus, iv, read-out: ED50, electric irritation of cat's heart) amounted to 3 ± 0.3 mg/kg. For the same compound, the “Antiarrhythmic index LD50/ED50, electric irritation of cat's heart” value in data set [2] (intravenous) is 13. Also, the “Antiarrhythmic index LD50/ED50, Strophanthin arrhythmia in guinea pigs” value in data set [3] came to 11.
